± gives the standard deviation of the averaged measurements. Some of the results follow.

Protein sequences, listed by entry. Tags and fused reporters are not part of them. Lines headed by an entry give the natural chain unless they say otherwise; changes in a name come on top.
UniProt P53634: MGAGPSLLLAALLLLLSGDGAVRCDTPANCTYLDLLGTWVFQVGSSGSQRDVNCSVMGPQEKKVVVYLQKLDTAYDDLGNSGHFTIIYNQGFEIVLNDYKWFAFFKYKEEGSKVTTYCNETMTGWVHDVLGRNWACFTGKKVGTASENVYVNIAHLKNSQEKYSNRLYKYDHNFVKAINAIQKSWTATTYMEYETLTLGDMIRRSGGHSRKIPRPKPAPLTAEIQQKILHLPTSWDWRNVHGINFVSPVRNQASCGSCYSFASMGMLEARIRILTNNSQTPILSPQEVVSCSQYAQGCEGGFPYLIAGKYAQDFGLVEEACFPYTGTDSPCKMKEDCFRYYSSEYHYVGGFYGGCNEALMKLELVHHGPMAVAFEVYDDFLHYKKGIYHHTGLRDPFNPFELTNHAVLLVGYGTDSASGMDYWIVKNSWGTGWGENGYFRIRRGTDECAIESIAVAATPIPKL
UniProt P56381: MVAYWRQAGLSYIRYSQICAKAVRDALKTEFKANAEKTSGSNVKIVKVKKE
UniProt P55010, whole entry: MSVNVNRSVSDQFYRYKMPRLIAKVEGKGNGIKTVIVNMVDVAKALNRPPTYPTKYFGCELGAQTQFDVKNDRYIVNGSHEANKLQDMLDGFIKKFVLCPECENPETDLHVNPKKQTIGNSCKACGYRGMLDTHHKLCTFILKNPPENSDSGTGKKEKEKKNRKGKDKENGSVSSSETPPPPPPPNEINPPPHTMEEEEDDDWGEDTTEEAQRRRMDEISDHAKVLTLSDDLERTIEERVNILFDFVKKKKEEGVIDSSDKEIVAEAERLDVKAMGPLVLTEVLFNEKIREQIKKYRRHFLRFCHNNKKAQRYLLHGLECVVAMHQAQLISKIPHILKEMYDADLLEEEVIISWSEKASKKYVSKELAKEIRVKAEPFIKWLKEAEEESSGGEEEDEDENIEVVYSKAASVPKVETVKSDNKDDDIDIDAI
UniProt P67775, whole entry: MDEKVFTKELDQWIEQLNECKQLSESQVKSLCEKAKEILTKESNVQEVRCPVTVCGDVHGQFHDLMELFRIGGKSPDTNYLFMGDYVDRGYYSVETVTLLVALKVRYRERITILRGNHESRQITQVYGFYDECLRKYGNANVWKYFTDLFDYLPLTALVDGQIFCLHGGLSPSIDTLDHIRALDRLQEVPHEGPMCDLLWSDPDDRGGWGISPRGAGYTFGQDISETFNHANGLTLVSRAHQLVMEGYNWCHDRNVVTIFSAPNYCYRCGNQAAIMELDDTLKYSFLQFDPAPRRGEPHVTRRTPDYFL
UniProt P54920: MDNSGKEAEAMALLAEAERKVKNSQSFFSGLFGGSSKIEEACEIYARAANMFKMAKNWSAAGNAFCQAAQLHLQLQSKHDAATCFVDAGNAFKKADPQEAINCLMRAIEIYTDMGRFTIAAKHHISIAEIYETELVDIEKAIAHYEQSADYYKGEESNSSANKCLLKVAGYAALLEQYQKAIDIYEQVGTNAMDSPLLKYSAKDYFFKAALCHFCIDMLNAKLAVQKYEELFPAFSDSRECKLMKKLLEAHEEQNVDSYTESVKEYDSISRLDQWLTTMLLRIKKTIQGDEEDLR
UniProt P61009: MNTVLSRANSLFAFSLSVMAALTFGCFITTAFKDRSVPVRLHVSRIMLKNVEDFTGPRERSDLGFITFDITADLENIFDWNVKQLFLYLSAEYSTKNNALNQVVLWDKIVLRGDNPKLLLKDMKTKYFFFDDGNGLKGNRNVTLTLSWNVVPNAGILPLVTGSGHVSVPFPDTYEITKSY
UniProt P60953, whole entry, looked up: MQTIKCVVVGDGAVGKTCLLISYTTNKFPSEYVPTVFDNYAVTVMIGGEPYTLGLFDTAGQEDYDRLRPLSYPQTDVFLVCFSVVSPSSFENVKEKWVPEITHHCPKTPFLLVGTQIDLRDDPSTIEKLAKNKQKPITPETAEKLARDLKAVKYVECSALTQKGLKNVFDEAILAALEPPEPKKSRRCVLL
UniProt P63092, whole entry, looked up: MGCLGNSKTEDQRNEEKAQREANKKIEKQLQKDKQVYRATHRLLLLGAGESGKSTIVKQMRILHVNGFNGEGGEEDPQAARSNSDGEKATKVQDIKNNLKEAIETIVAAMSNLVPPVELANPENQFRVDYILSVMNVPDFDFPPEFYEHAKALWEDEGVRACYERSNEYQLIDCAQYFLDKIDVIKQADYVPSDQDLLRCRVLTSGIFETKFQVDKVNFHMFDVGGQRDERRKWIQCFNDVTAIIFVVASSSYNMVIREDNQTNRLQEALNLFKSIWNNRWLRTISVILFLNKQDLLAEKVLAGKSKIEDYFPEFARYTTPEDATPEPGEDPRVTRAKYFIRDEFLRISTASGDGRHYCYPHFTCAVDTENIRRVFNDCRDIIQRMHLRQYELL
UniProt P85037: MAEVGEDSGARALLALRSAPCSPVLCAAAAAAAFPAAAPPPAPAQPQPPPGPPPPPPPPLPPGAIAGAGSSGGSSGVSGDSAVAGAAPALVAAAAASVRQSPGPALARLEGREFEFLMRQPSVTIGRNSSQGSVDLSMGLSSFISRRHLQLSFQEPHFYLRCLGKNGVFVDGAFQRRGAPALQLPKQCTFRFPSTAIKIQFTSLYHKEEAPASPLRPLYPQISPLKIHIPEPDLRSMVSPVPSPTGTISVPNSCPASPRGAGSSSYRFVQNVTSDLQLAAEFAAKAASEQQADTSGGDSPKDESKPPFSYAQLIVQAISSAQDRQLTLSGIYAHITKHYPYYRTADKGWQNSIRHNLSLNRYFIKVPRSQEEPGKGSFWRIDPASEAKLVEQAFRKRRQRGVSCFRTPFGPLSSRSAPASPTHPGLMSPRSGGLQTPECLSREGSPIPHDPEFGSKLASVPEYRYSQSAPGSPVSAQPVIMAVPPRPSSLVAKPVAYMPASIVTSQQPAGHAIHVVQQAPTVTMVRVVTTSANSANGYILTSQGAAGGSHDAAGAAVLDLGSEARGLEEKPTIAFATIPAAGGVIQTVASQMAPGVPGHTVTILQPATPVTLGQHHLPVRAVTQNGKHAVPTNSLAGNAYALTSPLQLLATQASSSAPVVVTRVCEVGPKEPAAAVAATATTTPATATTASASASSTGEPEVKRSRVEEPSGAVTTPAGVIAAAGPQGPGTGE
UniProt P98170, whole entry: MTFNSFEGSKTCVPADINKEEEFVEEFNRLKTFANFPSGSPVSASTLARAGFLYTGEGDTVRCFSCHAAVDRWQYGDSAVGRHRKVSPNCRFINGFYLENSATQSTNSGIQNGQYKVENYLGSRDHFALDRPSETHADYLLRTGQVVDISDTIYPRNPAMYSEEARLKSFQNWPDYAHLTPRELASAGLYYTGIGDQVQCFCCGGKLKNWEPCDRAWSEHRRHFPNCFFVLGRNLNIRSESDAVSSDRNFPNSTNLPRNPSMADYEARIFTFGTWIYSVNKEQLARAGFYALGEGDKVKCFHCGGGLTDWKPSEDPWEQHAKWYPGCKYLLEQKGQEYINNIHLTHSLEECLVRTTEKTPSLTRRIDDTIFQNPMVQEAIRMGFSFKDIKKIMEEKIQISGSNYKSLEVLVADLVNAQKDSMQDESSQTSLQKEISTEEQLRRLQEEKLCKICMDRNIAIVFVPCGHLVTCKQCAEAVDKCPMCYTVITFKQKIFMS
UniProt P62995: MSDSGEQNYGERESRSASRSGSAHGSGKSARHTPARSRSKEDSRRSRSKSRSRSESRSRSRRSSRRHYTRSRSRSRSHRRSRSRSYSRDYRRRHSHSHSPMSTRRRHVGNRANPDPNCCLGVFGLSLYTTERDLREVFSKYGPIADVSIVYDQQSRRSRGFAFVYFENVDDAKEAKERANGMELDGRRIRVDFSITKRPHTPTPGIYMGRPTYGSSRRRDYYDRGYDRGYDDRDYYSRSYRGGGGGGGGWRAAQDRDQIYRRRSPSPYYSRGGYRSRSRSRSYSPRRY
UniProt P84095: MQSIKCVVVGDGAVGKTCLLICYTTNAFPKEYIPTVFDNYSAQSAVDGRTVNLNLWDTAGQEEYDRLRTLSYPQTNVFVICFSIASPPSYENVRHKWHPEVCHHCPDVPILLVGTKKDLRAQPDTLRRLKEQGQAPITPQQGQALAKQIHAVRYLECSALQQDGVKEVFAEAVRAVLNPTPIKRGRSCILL
UniProt P52298: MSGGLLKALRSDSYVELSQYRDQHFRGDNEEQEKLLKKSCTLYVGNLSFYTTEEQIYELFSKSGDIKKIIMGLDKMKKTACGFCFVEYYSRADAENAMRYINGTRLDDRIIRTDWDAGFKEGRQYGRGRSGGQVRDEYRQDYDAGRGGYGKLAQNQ
UniProt P54727: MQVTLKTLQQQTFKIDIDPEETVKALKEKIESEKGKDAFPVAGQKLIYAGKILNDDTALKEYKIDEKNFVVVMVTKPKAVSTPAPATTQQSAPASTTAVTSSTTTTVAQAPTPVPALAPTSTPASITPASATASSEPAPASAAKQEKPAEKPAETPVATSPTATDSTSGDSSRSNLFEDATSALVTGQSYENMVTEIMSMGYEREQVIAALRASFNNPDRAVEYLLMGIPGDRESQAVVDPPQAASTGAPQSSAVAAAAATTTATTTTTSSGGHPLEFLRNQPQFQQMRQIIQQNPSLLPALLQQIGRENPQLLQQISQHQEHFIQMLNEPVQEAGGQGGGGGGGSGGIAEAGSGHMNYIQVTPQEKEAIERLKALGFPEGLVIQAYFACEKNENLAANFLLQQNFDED
UniProt P60983, whole entry: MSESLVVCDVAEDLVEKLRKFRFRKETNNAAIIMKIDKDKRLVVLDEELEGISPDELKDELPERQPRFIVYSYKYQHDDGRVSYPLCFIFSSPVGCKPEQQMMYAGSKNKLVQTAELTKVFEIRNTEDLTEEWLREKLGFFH
UniProt P61457: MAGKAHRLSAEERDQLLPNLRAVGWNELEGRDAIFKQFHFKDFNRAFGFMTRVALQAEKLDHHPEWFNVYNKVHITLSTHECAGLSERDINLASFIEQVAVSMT
UniProt P62314, whole entry: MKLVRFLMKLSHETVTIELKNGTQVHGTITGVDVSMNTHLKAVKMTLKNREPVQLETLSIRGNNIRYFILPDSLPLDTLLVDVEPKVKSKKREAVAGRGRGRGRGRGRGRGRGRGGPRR
UniProt P51532, whole entry: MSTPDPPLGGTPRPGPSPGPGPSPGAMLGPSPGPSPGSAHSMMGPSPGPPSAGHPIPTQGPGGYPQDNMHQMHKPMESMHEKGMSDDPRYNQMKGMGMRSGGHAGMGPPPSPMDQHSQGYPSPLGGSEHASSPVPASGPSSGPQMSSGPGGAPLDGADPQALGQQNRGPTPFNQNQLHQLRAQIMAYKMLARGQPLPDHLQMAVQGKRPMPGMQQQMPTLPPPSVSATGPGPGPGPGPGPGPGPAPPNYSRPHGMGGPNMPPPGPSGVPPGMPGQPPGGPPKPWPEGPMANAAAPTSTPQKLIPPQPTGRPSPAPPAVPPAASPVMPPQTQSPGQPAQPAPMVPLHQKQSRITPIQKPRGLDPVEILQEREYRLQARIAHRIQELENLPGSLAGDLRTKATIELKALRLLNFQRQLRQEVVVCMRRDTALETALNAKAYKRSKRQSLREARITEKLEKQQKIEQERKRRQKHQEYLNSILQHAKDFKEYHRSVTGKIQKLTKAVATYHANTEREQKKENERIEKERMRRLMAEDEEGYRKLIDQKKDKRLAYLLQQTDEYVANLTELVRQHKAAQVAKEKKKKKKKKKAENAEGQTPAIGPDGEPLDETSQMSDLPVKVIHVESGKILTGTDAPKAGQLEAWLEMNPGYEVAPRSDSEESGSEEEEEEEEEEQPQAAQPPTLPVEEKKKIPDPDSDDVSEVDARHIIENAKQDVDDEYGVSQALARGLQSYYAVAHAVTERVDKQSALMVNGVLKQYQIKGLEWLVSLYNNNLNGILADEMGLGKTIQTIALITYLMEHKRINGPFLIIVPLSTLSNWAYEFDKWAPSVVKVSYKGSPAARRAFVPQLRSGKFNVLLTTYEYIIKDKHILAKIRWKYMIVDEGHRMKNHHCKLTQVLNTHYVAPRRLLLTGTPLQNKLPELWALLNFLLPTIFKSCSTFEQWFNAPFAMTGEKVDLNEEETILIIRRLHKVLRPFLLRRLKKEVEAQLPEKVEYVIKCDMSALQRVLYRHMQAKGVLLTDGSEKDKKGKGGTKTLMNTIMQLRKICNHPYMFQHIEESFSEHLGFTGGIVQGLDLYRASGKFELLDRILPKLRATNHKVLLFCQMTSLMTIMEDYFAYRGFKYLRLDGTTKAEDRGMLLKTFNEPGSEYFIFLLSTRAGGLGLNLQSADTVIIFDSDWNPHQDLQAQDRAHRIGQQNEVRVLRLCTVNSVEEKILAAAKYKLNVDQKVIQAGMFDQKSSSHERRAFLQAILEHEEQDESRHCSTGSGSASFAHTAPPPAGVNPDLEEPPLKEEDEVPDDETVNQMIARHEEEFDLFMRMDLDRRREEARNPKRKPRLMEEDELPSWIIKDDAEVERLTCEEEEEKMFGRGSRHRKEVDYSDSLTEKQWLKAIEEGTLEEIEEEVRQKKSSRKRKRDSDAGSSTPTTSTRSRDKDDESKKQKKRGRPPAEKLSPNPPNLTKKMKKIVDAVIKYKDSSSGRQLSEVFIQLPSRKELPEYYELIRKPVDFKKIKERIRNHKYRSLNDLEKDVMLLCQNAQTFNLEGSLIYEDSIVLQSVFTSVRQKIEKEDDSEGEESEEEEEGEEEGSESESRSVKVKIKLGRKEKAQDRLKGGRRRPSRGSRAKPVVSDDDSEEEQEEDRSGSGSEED

Compound in this test: Nc1nc2c(ncn2[C@@H]2O[C@H](COP(=O)(O)OP(=O)(O)OP(=O)(O)O)[C@@H](O)[C@H]2O)c(=O)[nH]1 [guanosine triphosphate]
Briefly: NP40-soluble protein abundance relative to vehicle (solubility fold change) (ratio); higher = more soluble protein in presence of GTP. To be noted: concentration: 10mM. In short, it runs like this:
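Crude Jurkat lysate, prepared by Dounce homogenisation, was exposed to eight concentrations from 0.1 to 10 mM for 10 min at room temperature and then 3 min at 37 °C. Solubilisation used 0.8% NP40 with benzonase for 60 min at 4 °C, followed by ultracentrifugation and TMT labelling of the supernatant for LC-MS/MS. After vsn normalisation of intensities, each value is the fold change against the detergent-processed vehicle within each replicate, across three independent experiments.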
UniProt P61129: the NP40-soluble protein abundance is 1.02 ± 0.063. Take CTSC (UniProt P53634): the NP40-soluble protein abundance was 0.986 ± 0.044. In the case of UniProt P56381 it was 1.21 ± 0.22; in that of UniProt P61764 and related entries, 0.906 ± 0.069. In the case of UniProt P60604 it was 1.15 ± 0.044. Consider EIF5 (UniProt P55010), for which the NP40-soluble protein abundance turned out to be 0.922 ± 0.07. In the case of MRPS9 (UniProt P82933), the NP40-soluble protein abundance is 1.21 ± 0.33.

Consider PPP2CA (UniProt P67775), for which the NP40-soluble protein abundance stood at 0.935 ± 0.02. In the case of MRPS35 (UniProt P82673) it was 1.17 ± 0.37; in that of UniProt P50995 and related entries, 0.9 ± 0.097. Consider UniProt P54920 and related entries, for which the NP40-soluble protein abundance amounted to 0.951 ± 0.037. As to UniProt P61009, the NP40-soluble protein abundance was 0.87 ± 0.025. As to UniProt P60953, the NP40-soluble protein abundance amounted to 0.816 ± 0.12. For the target UniProt P62495, the NP40-soluble protein abundance was found to be 0.81 ± 0.086.

As for “UniProt P63092-2|P63092-3|P63092 and related entries”, the NP40-soluble protein abundance was found to be 0.847 ± 0.031. Regarding FOXK1 (UniProt P85037), the NP40-soluble protein abundance was found to be 1.07 ± 0.12. In the case of MARS (UniProt P56192) it was 1.16 ± 0.23; in that of XIAP (UniProt P98170), 0.975 ± 0.079; in that of UniProt P62995 and related entries, 1.41 ± 0.64. For UniProt P55884 and related entries, the NP40-soluble protein abundance is 1.75 ± 0.36.

Regarding UniProt P84095, the NP40-soluble protein abundance came to 0.844 ± 0.092. In the case of NCBP2 (UniProt P52298) it was 1.09 ± 0.092.

As for UniProt P54727 and related entries, the NP40-soluble protein abundance was 0.889 ± 0.03. As for UniProt P60983 and related entries, the NP40-soluble protein abundance was determined as 0.994 ± 0.087. Turning to PCBD1 (UniProt P61457), the NP40-soluble protein abundance was found to be 1.01 ± 0.06. In the case of UniProt P62314 it was 1.22 ± 0.092; in that of ITGA1 (UniProt P56199), 1.01 ± 0.14. In the case of UniProt P51532 and related entries it was 1.21 ± 0.21.

The record behind these values is the supplement of paper PMC6411743.
